{
  "source": "patent US20250144101A1",
  "about": "“LYSOSOMAL DYSFUNCTION IN NEUROLOGICAL AND PSYCHIATRIC DISORDERS” (The Johns Hopkins University, priority 2022, published 2025)",
  "key": {"[1]": {"system": "lymphoblasts from BD patients with a Cln3 mutation", "assay": "LAMP1 staining of BD/JNCL patient lymphoblasts", "assay_type": "cell-based, human", "method": "(§1) LAMP1 staining: Lymphoblasts were fixed with methanol and incubated overnight at 4° C. with anti-human LAMP1 antibody (1:400, Cell Signaling Technology) followed by secondary antibody (Alexa Fluor 488 donkey anti-rabbit IgG, 1:1000, Thermo Fisher Scientific). Neuronal cells differentiated from iPS cells were fixed with 4% paraformaldehyde (PFA) and incubated overnight at 4° C. with anti-human LAMP1 antibody (1:400, Cell Signaling Technology) followed by a secondary antibody (Alexa Fluor 488 donkey anti-rabbit IgG, 1:1000, Thermo Fisher Scientific). White blood cells from mice were fixed with methanol and incubated overnight at 4° C. with LAMP1 antibody (1:1000, Abcam) followed by a secondary antibody (Alexa Fluor 488 donkey anti-rabbit IgG, 1:1000, Thermo Fisher Scientific). KEYENCE BZ-X710 and BX-Z analyzer software were used for imaging quantification."}, "Cln3−/− mice [2]": {"system": "Cln3−/− mice", "assay": "LAMP1 immunohistochemistry of brain sections, BD animal model", "assay_type": "in vivo", "details": "6-month old Cln3−/− mice, 0.06-0.3 mg/g food, 4 months, FIG. 3A"}, "[3]": {"system": "Neuronal cells differentiated from Cln3 mutant iPSCs", "assay": "LAMP1 staining of neuronal cells differentiated from Cln3 mutant iPSCs", "assay_type": "cell-based, human", "details": "0.08-2 μM, n=2-3, FIG. 2D", "method": "as §1"}, "[4]": {"system": "lymphoblasts from BD patients with a Cln3 mutation", "assay": "Cellular autofluorescence (AF) in BD/JNCL patient lymphoblasts by flow cytometry", "assay_type": "cell-based, human", "details": "3 μM, FIG. 2B", "method": "Autofluorescence (AF): AF levels in human blood cells were measured in 30,000 cells using flow cytometry at FL-1 with the BD FACSCalibur™ (BD Biosciences) (Excitation; 488 nm, Emission; 530±15 nm) (for FIGS. 1A-1C). AF levels in lymphoblasts were measured in 20,000 cells using flow cytometry with Attune Flow Cytometer (Thermo Fisher Scientific) (Excitation; 488 nm, Emission; 530 nm) (for FIGS. 2A and 2B)."}, "Cln3−/− mice [5]": {"system": "Cln3−/− mice", "assay": "LAMP1 staining of peripheral white blood cells, BD animal model", "assay_type": "in vivo", "details": "0.06-3 mg/g food, 4 months, FIG. 3C", "method": "as §1\nIsolation of white blood cells from peripheral blood of mice: 20 μL of blood of mice was lysed with ACK lysing buffer (Lonza) for 1 min. After washing, cells were resuspended with RPMI."}, "Cln3−/− mice [6]": {"system": "Cln3−/− mice", "assay": "Novel object recognition test, BD animal model", "assay_type": "in vivo", "details": "6-month old Cln3−/− mice, 0.06-3 mg/g food, 4 months, FIG. 3B", "method": "Novel Object Recognition Test (NORT): The test was carried out according to the previously validated method (Hatayama et al., Neuroscience 265 (2014) 217-25). All mice were habituated for 1 hour to the NORT arena one day before the test day. On the day of testing, the mice were given two 5-min trials (T1 with two identical objects and T2 with a familiar object from T1 and a novel object), separated by 1-hour interval. The discrimination index (DI) ((time spent exploring the novel object−time spent exploring the familiar object)/total exploration time) was calculated for T2 trials."}},
  "note": "Entries after “also recorded” stand apart in the source; their conditions may differ. For at least one compound, name, drawing or mass did not settle the structure.",
  "data": [
    {"compound": "Cc1c(C)c2c(c(C)c1O)CCC(C)(COc1ccc(CC3SC(=O)NC3=O)cc1)O2", "note": "(centres unmarked) [troglitazone]", "values": [
      {"measurement": "anti-LAMP1 staining of JNCL patient lymphoblasts", "setting": "[1]; 3 μM, n=3, FIG. 2C", "value": "decreased it"},
      {"measurement": "lysosomal deficits found in BD lymphoblasts (LAMP1 expression and AF levels)", "setting": "[1]; cites FIGS. 2C, 2D", "value": "ameliorate the lysosomal deficits"},
      {"measurement": "LAMP1 positive area in CA2/3 and VPL/VPM brain sections", "setting": "Cln3−/− mice [2]", "value": "ameliorated the pathology; also recorded: reduction of LAMP1 positive area"},
      {"measurement": "anti-LAMP1 staining of neuronal cells differentiated from Cln3 mutant iPSCs", "setting": "[3]", "value": "treatment effects of troglitazone were also detected"},
      {"measurement": "anti-LAMP1 staining of neuronal cells differentiated from Cln3 mutant iPSCs", "setting": "[3]; listed as Troglitazone", "value": "dose-dependently decreased it"},
      {"measurement": "elevated autofluorescence (AF) of JNCL patient lymphoblasts", "setting": "[4]", "value": "decreased it"},
      {"measurement": "anti-LAMP1 staining of peripheral white blood cells", "setting": "Cln3−/− mice [5]", "value": "amelioration of the blood pathology; also recorded: decreased it"},
      {"measurement": "impairment in novel object recognition (NOR) test", "setting": "Cln3−/− mice [6]", "value": "beneficial outcome; also recorded: did not"}
    ]}
  ]
}
